Record: PubChem BioAssay AID1159578 (Peter MacCallum Cancer Centre, 2015)
Assay: 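siRNA pools altering how lymphatic endothelial cells close a scratch wound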 (primary screen). Cells: human lymphatic endothelial cells. Reagents: siRNA pool against human genes, 40 nM. Time to read-out: 48 h after transfection. Detection: 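Cells stained with dye and imaged after a scratch; covered wound area and nuclei counted, duplicates averaged, migration set against mock wells and turned into a robust z-score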. Scale: migration robust z-score: higher = faster migration into the scratch; nuclei per well: higher = more cells in the well. Active means: 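Migration changed when robust z exceeds 2 or falls below -2 and mean nuclei number is at least 3300; otherwise not called changed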. Meaning of the calls: active = migration changed; inactive = no migration change, or too few cells.
Shown is a random part of about 18,000 deposited reagents. About 1,030 of all reagents (5.7%) were called active. 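Inactive calls also include pools with fewer than 3300 nuclei, whose migration was not assessed.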 Raw values vary from plate to plate and are shown uncorrected. Entries without a mark were called inactive. Reagents against one gene are numbered here. Further read-outs or replicates are left out here.

After knock-down of CNNM3, the record shows migration robust z-score 0.79; nuclei per well, duplicate mean 5964. Against NUDCD3 (NudC domain containing 3), the values are migration robust z-score -0.34; nuclei per well, duplicate mean 6858. POC1B (POC1 centriolar protein B) showed migration robust z-score -0.56; nuclei per well, duplicate mean 4637. D2HGDH (D-2-hydroxyglutarate dehydrogenase) gave migration robust z-score -0.35; nuclei per well, duplicate mean 5724. For SLC35E2A the deposit lists migration robust z-score -2.05 (active); nuclei per well, duplicate mean 4761. For SHPK (sedoheptulokinase), the values are migration robust z-score -0.57; nuclei per well, duplicate mean 3504.

Silencing of CDC42BPG (CDC42 binding protein kinase gamma) resulted in: migration robust z-score -2.26 (active); nuclei per well, duplicate mean 4632. With knock-down of PTPN23 (protein tyrosine phosphatase non-receptor type 23), the record shows migration robust z-score -0.05; nuclei per well, duplicate mean 5812. For NUP210 (nucleoporin 210), the values are migration robust z-score 0.74; nuclei per well, duplicate mean 5798. CAPRIN1 (cell cycle associated protein 1) scored migration robust z-score -0.16; nuclei per well, duplicate mean 3316. ABCA8 (ATP binding cassette subfamily A member 8) scored migration robust z-score -0.34; nuclei per well, duplicate mean 7384. PRR30 (proline rich 30) showed migration robust z-score 0.32; nuclei per well, duplicate mean 4838.

For LAT2 (linker for activation of T cells family member 2) the deposit lists migration robust z-score -0.8; nuclei per well, duplicate mean 5076. SZT2 (SZT2 subunit of KICSTOR complex) #1 scored migration robust z-score 0.09; nuclei per well, duplicate mean 5542. Against SZT2 (SZT2 subunit of KICSTOR complex) #2, the values are migration robust z-score -1.34; nuclei per well, duplicate mean 5969.

Ordered by “nuclei per well, duplicate mean” (high to low): 2 of the entries above
PTPN23 (protein tyrosine phosphatase non-receptor type 23) | migration robust z-score: -0.05; nuclei per well, duplicate mean: 5812
CDC42BPG (CDC42 binding protein kinase gamma) | migration robust z-score: -2.26 (active); nuclei per well, duplicate mean: 4632
